By solubility is commonly meant how much of the substance goes into solution per volume. Low readings indicate a poorly soluble substance, high ones a readily soluble substance.

Molecules are shown by their SMILES. Values after ≈ are worked out from the molar mass of the structure shown.

How the values of series [1] were obtained: Polymer solutions were prepared by dissolving EPO (0.1%, 0.5%, 1%, 2%, 3%, 4%, 5% (w/w)) in deionized water and adjusting all solutions to pH 6.0 by hydrochloric acid and sodium hydroxide at 25° C. Solutions were checked carefully for absence of particles.
Solubility of compounds in EPO-solutions was determined by using a 96-well assay that was introduced to measure equilibrium solubility in parallel to a solid state analysis of the residual solid (SORESOS)^21 as described before.^22 In brief, APIs were dispensed using the powder-picking-method^23 in a 96-well flat bottom plate (Corning Inc., Durham, USA). Mixtures were agitated by head-over-head rotation for 48 h at room temperature after addition of stir bars and polymer solutions (150 μl). […] Samples were analyzed directly in the 96-well filter plate with an exposure time of 5 min per well.
Solubility of compounds in EPO-solutions was determined by using a 96-well assay that was introduced to measure equilibrium solubility in parallel to a solid state analysis of the residual solid (SORESOS)^21 as described before.^22 In brief, APIs were dispensed using the powder-picking-method^23 in a 96-well flat bottom plate (Corning Inc., Durham, USA). […] Samples were analyzed directly in the 96-well filter plate with an exposure time of 5 min per well.

Another series is described as follows: physchem. As to conditions: water, thermodynamic from solid.

Take `COC(=O)C1=C(C)NC(C)=C(C(=O)OC)C1c1ccccc1[N+](=O)[O-]` [NFP, nifedipine]: in series [1], the “course of solubility with polymer concentration” value is listed as “increase of solubility with polymer concentration up to 5% EPO”. Moreover, in the series “physchem”, the concentration in solution (solubility) came to 18 µg/mL (≈ 52 µM).

The values above are taken from patent US11491109B2, “Pharmaceutical compositions for basic or neutral, low molecular weight compounds” (Hoffmann-La Roche Inc., priority 2017, dated 2022).
